The source of these data is paper PMC2834593, “NMR characterisation of the minimal interacting regions of centrosomal proteins 4.1R and NuMA1: effect of phosphorylation” (BMC Biochemistry, 2010).

Assay [1] concerns the target T1, 4.1R-CTD64 (last 64 amino acids of the C-terminal domain of human protein 4.1R) (human).
T1 sequence (chain, 15N labelled): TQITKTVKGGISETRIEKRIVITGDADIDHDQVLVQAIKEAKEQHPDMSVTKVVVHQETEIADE
The experiment in a line: NMR titration; 15N labelled 4.1R-CTD64 (0.1 mM, 100 mM Na2HPO4, 90% H2O/10% D2O) titrated with NuMA1 peptide up to 20:1, followed by 1H-15N HSQC, pH 4.9, 25°C; chemical shift perturbation analysis; both purified.

For assay [2] the target is unchanged. In words: NMR titration; 15N labelled 4.1R-CTD64 (0.1 mM, 100 mM Na2HPO4, 90% H2O/10% D2O) titrated with NuMA1 peptide up to 20:1, followed by 1H-15N HSQC, pH 4.0, 25°C; both purified.

No constants are given. Whether binding was seen depends on the method and setting.

For the molecule LDSLGDVFLDSGRKTRSARRR (acetyl on the N-terminus; C-terminal amide) [NuMA1 overlapping peptide (N1O), residues 1776-1796 of NuMA1], in assay [1], the binding entry is “no binding (tested: up to 20:1 N1O to 4.1R-CTD64)”.

Consider DSGRKTRSARRRTTQIINITMTKKLD (acetyl on the N-terminus; C-terminal amide) [NuMA1 interacting peptide (N1I), residues 1785-1810 of NuMA1], for which the binding entry in assay [2] is “no binding (condition: at pH 4 (N1I:4.1R-CTD64, 20:1))”.
